According to article PMC4227786:
These are yes or no findings as the source states them, for the method shown. Binding seen in cells or lysates may run through a third protein. Some entries that bind do so weakly or less than the wild type.

The chains behind the UniProt entries cited, without tags or fusion partners.
UniProt Q9UBS0: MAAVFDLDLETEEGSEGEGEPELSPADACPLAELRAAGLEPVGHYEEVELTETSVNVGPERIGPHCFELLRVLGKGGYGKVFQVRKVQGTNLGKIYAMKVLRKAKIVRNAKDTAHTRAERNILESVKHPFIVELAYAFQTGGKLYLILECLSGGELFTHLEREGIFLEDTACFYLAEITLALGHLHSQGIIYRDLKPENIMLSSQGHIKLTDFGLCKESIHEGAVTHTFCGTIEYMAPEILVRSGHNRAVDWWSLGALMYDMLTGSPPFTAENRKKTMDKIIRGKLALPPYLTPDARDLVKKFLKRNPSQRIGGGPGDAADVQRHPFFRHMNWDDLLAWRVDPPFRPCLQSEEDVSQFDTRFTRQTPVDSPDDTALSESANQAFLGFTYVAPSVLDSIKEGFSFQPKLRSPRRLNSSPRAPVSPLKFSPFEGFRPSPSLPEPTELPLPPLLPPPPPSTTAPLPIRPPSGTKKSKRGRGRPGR

Target: T1, PDCD4 (endogenous) (human (endogenous in HEK293)) (UniProt Q53EL6)
T1 sequence: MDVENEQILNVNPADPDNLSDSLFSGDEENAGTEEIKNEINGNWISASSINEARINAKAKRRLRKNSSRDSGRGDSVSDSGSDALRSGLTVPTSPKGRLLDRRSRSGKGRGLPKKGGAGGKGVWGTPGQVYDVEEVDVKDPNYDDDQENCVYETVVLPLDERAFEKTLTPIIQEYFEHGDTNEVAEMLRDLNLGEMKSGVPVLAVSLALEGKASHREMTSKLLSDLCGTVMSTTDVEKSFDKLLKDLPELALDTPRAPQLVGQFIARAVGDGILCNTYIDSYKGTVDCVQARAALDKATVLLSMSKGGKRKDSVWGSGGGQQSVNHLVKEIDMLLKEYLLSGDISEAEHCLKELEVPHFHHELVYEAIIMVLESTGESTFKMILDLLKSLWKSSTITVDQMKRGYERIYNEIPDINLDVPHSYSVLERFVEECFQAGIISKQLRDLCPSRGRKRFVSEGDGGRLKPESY
Assay: co-IP; endogenous proteins immunoprecipitated from H510 or HEK293 cells treated ± FGF-2; antibodies on Protein A or G magnetic beads; western blot

binding: binds
Substance: S6K2 (endogenous ribosomal S6 kinase 2) (from UniProt Q9UBS0 1-482) (enzyme)
